The source of these data is US20250352550A1, “SUBSTITUTED FUROPYRIDINES FOR THERAPEUTIC USE” (MASARYKOVA UNIVERZITA, priority 2022, published 2025).

The chains behind the UniProt entries cited, without tags or fusion partners. Residues count along the entry.
UniProt Q08345, 19-913 limits assumed: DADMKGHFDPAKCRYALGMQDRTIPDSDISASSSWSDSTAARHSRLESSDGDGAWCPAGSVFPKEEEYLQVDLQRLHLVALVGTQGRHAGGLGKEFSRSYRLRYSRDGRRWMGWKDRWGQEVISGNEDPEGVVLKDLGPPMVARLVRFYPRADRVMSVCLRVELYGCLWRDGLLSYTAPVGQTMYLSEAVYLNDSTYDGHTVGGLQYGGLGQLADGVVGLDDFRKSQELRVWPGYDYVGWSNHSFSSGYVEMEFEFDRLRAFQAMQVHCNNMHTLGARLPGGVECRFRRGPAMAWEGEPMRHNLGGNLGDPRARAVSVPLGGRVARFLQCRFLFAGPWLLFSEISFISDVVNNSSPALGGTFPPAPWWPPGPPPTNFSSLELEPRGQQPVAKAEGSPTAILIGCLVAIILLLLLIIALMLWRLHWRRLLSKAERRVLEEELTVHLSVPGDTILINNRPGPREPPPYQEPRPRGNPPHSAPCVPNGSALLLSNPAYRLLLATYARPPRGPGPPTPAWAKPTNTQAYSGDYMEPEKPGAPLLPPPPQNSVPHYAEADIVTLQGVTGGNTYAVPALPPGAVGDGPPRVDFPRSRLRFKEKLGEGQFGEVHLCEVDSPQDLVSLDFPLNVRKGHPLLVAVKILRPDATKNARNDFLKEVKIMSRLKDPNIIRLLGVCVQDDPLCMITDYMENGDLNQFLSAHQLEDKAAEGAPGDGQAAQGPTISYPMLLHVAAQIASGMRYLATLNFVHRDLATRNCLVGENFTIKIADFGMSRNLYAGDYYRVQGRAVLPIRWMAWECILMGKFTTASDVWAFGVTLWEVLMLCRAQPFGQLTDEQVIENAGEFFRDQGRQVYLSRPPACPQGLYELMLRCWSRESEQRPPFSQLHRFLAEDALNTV
UniProt P36888, 27-993 limits assumed: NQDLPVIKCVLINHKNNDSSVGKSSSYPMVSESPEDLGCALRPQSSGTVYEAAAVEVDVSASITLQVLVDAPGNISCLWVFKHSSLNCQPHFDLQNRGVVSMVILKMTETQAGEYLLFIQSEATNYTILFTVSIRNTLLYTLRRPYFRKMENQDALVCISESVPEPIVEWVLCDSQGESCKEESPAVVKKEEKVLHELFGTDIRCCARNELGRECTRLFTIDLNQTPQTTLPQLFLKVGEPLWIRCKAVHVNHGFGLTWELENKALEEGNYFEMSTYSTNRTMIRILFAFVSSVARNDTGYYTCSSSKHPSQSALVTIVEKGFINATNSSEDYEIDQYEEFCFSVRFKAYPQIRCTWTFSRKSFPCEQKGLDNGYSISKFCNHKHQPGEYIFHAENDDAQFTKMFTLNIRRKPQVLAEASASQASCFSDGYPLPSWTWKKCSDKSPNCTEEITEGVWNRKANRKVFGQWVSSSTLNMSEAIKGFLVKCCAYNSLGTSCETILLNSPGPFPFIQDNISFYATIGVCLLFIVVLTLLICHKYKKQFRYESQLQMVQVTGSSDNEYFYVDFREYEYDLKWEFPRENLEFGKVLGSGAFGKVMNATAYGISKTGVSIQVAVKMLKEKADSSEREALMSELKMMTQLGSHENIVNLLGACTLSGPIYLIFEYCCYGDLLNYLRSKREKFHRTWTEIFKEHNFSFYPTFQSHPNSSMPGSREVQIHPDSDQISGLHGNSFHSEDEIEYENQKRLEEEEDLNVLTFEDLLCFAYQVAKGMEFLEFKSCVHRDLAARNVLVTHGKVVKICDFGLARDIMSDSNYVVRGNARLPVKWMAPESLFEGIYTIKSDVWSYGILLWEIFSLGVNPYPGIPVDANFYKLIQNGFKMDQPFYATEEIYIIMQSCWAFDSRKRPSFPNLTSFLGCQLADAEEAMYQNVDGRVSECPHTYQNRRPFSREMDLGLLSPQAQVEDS

One assay deals with DDR1 (Homo sapiens, UniProt Q08345). Kind of assay: HotSpot radiometric kinase assay (Reaction Biology), DDR1. The note with it: read-out: DDR1 IC50; 200 nM kinase, substrate IRS1tide 20 μM, 33P-ATP, 120 minutes at room temperature. It is filed as biochemical.
The target in another assay is FLT3 (Homo sapiens, UniProt P36888). Kind of assay: HotSpot radiometric kinase assay (Reaction Biology), FLT3. The following applies: read-out: FLT3 IC50; 4 nM kinase, substrate ABLtide 20 μM, 33P-ATP, 120 minutes at room temperature.

Structures are written as SMILES. Structures were worked out from names or drawings and are uncertain.

A word on the IC50: it is the concentration that gives 50% inhibition.

`c1cc(-c2ccncc2)cc(-c2coc3cc(-c4ccc(N5CCNCC5)cc4)cnc23)c1`: the IC50 was found to be 183 nM on DDR1 and 236 nM on FLT3.
